Reference: article PMC11178898, “A clade of receptor-like cytoplasmic kinases and 14-3-3 proteins coordinate inositol hexaphosphate accumulation” (Nature Communications, 2024)
No constants are given. Whether binding was seen depends on the method and setting. Binding seen in cells or lysates may run through a third protein. Some binding calls cover weakened binding; strength is not graded here. Where a sequence is shown, tags or fusion partners need not be part of it.

T1: GRF4, BiFC fusion (Arabidopsis thaliana) (UniProt P46077)
T1 sequence: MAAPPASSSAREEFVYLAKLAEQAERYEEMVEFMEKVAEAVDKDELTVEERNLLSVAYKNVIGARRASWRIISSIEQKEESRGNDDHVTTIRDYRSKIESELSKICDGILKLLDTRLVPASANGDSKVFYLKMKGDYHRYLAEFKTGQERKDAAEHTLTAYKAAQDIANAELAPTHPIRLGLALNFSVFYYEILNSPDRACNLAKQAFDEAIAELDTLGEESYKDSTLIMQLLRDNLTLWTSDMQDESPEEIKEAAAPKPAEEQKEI

T2: GRF4, Split-LUC fusion (Arabidopsis thaliana) (UniProt P46077)
T2 sequence: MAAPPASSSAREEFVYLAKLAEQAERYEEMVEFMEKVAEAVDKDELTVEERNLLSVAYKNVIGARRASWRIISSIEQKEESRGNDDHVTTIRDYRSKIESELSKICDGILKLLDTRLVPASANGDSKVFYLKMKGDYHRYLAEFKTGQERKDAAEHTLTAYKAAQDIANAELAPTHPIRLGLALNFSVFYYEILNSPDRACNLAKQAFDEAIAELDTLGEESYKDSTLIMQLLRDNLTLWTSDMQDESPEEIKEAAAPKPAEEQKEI


Columns and labels:
[1] = molecular target: T1, GRF4, BiFC fusion (Arabidopsis thaliana); assay: split reporter; BiFC; constructs transiently expressed in Arabidopsis mesophyll protoplasts, confocal imaging
[2] = molecular target: T2, GRF4, Split-LUC fusion (Arabidopsis thaliana); assay: split reporter; Split-LUC; X-nLUC and X-cLUC constructs co-infiltrated into tobacco leaves, LUC activity with D-luciferin; in Figs. 5a, 6f, 7c with or without IPCK1

Binder	binding [1]	binding [2]
IPK1, BiFC fusion (protein, UniProt Q93YN9 1-451) MEMILEEKDASDWIYRGEGGANLVLAYAGSSPLFVGKVIRIQKARRNDKAIKNANGVVSVLTSDEQHLWRENNELISSPNKEVLEQRYVKNVIIPLLGPKHVDAGVRVSVSKEFLECVDKKVTKQRPLWRVNAANVDTSHDSALILNDHSLFSQGISSGGDCISVEIKPKCGFLPTSRFIGKENMLKTSVSRFKMHQLLKLEYNEISEESEYDPLDLFSGSKESVLEAIKALYSTPQNNFRVFLNGSLILGGSGESTGRTSPEIGYAFEDALKGFIQSEDGHRTECFLQLVSDAVYGSGVLDRLLEIQKLDKLDIEGAIHSYYDLINQPCPICKEGKPLEAELSLHALPLDESLKIVKEYLIAATAKDCSIMISFQSRNAWDSEPSGDYVSLKPTNQTFDYKVHFIDLSLKPLKRMESYYKLDKKIISFYNRKQKAENTAEQIGNSKPSHS	binds	
IPK1, Split-LUC fusion (protein, UniProt Q93YN9 1-451) MEMILEEKDASDWIYRGEGGANLVLAYAGSSPLFVGKVIRIQKARRNDKAIKNANGVVSVLTSDEQHLWRENNELISSPNKEVLEQRYVKNVIIPLLGPKHVDAGVRVSVSKEFLECVDKKVTKQRPLWRVNAANVDTSHDSALILNDHSLFSQGISSGGDCISVEIKPKCGFLPTSRFIGKENMLKTSVSRFKMHQLLKLEYNEISEESEYDPLDLFSGSKESVLEAIKALYSTPQNNFRVFLNGSLILGGSGESTGRTSPEIGYAFEDALKGFIQSEDGHRTECFLQLVSDAVYGSGVLDRLLEIQKLDKLDIEGAIHSYYDLINQPCPICKEGKPLEAELSLHALPLDESLKIVKEYLIAATAKDCSIMISFQSRNAWDSEPSGDYVSLKPTNQTFDYKVHFIDLSLKPLKRMESYYKLDKKIISFYNRKQKAENTAEQIGNSKPSHS		binds

Now from value to binder:

binding [1]	binding [2]	Binder
binds		PI-PLC2, BiFC fusion (protein, UniProt Q39033 1-581) MSKQTYKVCFCFRRRFRYTASEAPREIKTIFEKYSENGVMTVDHLHRFLIDVQKQDKATREDAQSIINSASSLLHRNGLHLDAFFKYLFGDNNPPLALHKVHHDMDAPISHYFIFTGHNSYLTGNQLSSDCSEVPIIDALKKGVRVIELDIWPNSNKDDIDVLHGMTLTTPVGLIKCLKAIRAHAFDVSDYPVVVTLEDHLTPDLQSKVAEMVTEIFGEILFTPPVGESLKEFPSPNSLKRRIIISTKPPKEYKEGKDVEVVQKGKDLGDEEVWGREVPSFIQRNKSEAKDDLDGNDDDDDDDDEDKSKINAPPQYKHLIAIHAGKPKGGITECLKVDPDKVRRLSLSEEQLEKAAEKYAKQIVRFTQHNLLRIYPKGTRVTSSNYNPLVGWSHGAQMVAFNMQGYGRSLWLMQGMFRANGGCGYIKKPDLLLKSGSDSDIFDPKATLPVKTTLRVTVYMGEGWYFDFRHTHFDQYSPPDFYTRVGIAGVPGDTVMKKTKTLEDNWIPAWDEVFEFPLTVPELALLRLEVHEYDMSEKDDFGGQTCLPVWELSEGIRAFPLHSRKGEKYKSVKLLVKVEFV
	binds	PI-PLC2, Split-LUC fusion (protein, UniProt Q39033 1-581) MSKQTYKVCFCFRRRFRYTASEAPREIKTIFEKYSENGVMTVDHLHRFLIDVQKQDKATREDAQSIINSASSLLHRNGLHLDAFFKYLFGDNNPPLALHKVHHDMDAPISHYFIFTGHNSYLTGNQLSSDCSEVPIIDALKKGVRVIELDIWPNSNKDDIDVLHGMTLTTPVGLIKCLKAIRAHAFDVSDYPVVVTLEDHLTPDLQSKVAEMVTEIFGEILFTPPVGESLKEFPSPNSLKRRIIISTKPPKEYKEGKDVEVVQKGKDLGDEEVWGREVPSFIQRNKSEAKDDLDGNDDDDDDDDEDKSKINAPPQYKHLIAIHAGKPKGGITECLKVDPDKVRRLSLSEEQLEKAAEKYAKQIVRFTQHNLLRIYPKGTRVTSSNYNPLVGWSHGAQMVAFNMQGYGRSLWLMQGMFRANGGCGYIKKPDLLLKSGSDSDIFDPKATLPVKTTLRVTVYMGEGWYFDFRHTHFDQYSPPDFYTRVGIAGVPGDTVMKKTKTLEDNWIPAWDEVFEFPLTVPELALLRLEVHEYDMSEKDDFGGQTCLPVWELSEGIRAFPLHSRKGEKYKSVKLLVKVEFV
